No constants are given. Whether binding was seen depends on the method and setting. Some binding calls cover weakened binding; strength is not graded here.
The binders below were run against EGFR (UniProt P00533) (assay: peptide screen, Example 48).

Binder	binding
YAQHCYLFPMDWICTLTT [EGA891]	binds
YSEHCWQFPDDWICTLMT [EGA892]	binds
YAEHCRVFPTDWICTLRP [EGA893]	binds
YGQHCSLFPTDWICSLMT [EGA894]	binds
YAEHCRQFRTDWICTLMT [EGA895]	binds
YAEHCLTFPTDWICSLAQ [EGA896]	binds
YAGHCRDFPSDWICSLVP [EGA897]	binds
YAEHCWYFPTDWICTLT [EGA898]	binds
YQEHCWLFPTDWICSLTS [EGA899]	binds
YADHCCHFPADWICTLNA [EGA900]	binds
YAEHCWLFPTDWICSLMP [EGA901]	binds
YADHCLQFPLDWICTLMK [EGA902]	binds
YAEHCTQFPTDWICTLTS [EGA903]	binds
YAEHCRQFPSDWICTLMT [EGA904]	binds
YSEHCYLFPTDWICTLPT [EGA905]	binds
YVDHCWDFPTDWICTLLS [EGA906]	binds
YIEHCWQFPTDWICTLMT [EGA907]	binds
YADHCRFFPTDWICTLMP [EGA908]	binds
YAQHCMQFPTDWICTLMT [EGA909]	binds
YADHCWQFPSDWICTLLA [EGA910]	binds
YARHCMQFPTDWICSLTT [EGA911]	binds
YAEHCWQFPTDWICTLRS [EGA912]	binds
YEDHCSLFPKDWICGLMP [EGA913]	binds
YAEHCWQFPTDWICTLLP [EGA914]	binds
YEEHCQLFPTDWICTIRT [EGA915]	binds
YAEHCWLFPTDWICSLMT [EGA916]	binds
YAEHCWQFPTDWICTLMS [EGA918]	binds
YAEHCRQFPTDWICGLMT [EGA919]	binds
